Laboratory results taken from patent publication US5789414A, “Pharmaceutical compositions comprising tetrahydropyrimidine derivates” (Yeda Research and Development Co. Ltd., priority 1992, dated 1998).

Test system: Act D-d(ATGCAT) complex
Test: 1H NMR binding of THPs to the Act D-d(ATGCAT) complex

CC1=NCC(O)C(C(=O)O)N1 (centres unmarked) [THP(A), 2-methyl-4-carboxy-5-hydroxy-3,4,5,6-tetrahydropyrimidine]
additional downfield shift of GH8 protons (THP(A) added after THP(B) to Act D-d(ATGCAT)): 0.22 ppm

CC1=NCC[C@@H](C(=O)O)N1 [THP(B), 2-methyl-4-carboxy-3,4,5,6-tetrahydropyrimidine]
downfield chemical shift of GH8 protons (addition of THP(B) to Act D-d(ATGCAT), 0.64 Act D per hexamer): 0.018 ppm
